Experimental data: publication PMC10363120
Results are given in words; binding and its absence hold for the method and conditions named. For some of these results: In cells and extracts the contact can be indirect. Some entries that bind do so weakly or less than the wild type. For some of these results: Where a sequence is shown, tags or fusion partners need not be part of it.

Sequences of proteins named here, by UniProt entry; tags and fusion partners are left off.
UniProt P29351: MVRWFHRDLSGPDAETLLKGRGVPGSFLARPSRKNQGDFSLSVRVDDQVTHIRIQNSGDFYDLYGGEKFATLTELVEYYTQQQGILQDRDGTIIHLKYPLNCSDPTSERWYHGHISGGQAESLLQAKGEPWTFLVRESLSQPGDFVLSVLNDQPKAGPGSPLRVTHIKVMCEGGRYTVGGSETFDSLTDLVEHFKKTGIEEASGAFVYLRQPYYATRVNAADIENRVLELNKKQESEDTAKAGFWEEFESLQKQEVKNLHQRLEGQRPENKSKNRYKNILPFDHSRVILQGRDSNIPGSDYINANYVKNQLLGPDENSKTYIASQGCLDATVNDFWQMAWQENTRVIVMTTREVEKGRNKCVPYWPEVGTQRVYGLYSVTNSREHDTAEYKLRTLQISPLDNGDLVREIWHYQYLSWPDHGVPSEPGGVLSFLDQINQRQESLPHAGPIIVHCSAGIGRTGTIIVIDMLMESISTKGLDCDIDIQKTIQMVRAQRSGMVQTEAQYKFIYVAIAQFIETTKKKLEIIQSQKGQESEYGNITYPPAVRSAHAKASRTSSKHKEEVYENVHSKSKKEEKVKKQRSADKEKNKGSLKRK

Legend:
[1] = target: T1, Paired immunoglobulin-like receptor B (PirB) on monocyte-derived macrophages (mouse (endogenous in mouse MDMs)) (UniProt P97484); assay: co-IP; endogenous PirB and SHP-1/2 in mouse MDMs, with or without rA8 treatment
T1 sequence: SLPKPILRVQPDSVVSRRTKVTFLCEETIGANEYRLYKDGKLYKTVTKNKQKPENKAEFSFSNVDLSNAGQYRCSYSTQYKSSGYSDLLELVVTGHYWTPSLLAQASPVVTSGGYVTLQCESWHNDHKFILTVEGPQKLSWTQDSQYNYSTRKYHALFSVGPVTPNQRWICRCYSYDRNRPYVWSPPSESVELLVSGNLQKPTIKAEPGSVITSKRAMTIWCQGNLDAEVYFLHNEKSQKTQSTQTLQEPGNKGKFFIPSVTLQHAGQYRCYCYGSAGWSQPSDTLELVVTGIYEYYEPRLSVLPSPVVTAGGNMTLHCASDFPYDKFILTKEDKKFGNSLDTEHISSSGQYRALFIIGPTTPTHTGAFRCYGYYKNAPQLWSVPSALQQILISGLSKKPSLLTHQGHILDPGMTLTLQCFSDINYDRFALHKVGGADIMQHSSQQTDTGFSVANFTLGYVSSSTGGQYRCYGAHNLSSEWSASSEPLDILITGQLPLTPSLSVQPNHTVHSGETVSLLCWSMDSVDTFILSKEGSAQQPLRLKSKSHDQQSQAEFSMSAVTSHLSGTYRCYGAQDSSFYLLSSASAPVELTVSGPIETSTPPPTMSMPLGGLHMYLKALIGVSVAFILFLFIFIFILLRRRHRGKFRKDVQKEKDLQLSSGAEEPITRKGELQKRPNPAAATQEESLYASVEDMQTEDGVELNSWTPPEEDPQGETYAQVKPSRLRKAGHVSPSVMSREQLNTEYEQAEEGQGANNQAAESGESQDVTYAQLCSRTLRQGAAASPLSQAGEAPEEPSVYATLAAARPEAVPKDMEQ

[2] = target: T2, GST-PirB ectodomain (mouse) (UniProt P97484); assay: pull-down; in vitro GST pull-down (Pierce GST Protein Interaction Pull-Down Kit); GST-PirB ectodomain as bait, purified Flag-tagged ANGPTL8 proteins; immunoblot with anti-GST, anti-His, anti-Flag; both purified
T2 sequence: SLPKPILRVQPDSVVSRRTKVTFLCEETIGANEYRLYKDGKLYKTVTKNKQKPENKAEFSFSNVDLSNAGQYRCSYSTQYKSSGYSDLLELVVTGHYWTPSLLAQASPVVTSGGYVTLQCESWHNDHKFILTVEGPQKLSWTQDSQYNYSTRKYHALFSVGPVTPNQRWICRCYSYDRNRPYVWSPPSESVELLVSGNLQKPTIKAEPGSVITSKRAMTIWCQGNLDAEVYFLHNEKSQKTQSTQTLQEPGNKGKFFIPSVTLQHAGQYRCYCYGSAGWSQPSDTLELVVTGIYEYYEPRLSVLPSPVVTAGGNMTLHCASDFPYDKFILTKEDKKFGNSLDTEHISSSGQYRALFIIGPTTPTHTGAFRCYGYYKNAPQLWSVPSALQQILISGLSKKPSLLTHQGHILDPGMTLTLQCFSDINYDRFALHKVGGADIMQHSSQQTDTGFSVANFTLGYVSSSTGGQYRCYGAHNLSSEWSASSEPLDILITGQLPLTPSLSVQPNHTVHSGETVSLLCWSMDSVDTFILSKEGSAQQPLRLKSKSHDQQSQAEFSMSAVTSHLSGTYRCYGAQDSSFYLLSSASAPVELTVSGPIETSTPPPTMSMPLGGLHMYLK

[3] = target: T1, Paired immunoglobulin-like receptor B (PirB) on monocyte-derived macrophages (mouse (endogenous in mouse MDMs)); assay: co-IP; mouse MDMs treated with exogenous Flag-tagged rA8; lysed in Co-IP buffer (pH 7.5, 1% Triton X-100, 150 mM NaCl, 20 mM Tris, 1 mM EDTA); IP with anti-Flag or anti-PirB overnight at 4 °C, Protein A/G, western blot; only the binder purified
[4] = target: T3, recombinant ANGPTL8 protein (Flag-tagged) (UniProt Q8R1L8); assay: receptors fishing experiment; receptors on MDMs fished with ANGPTL8; told only in the discussion
T3 sequence: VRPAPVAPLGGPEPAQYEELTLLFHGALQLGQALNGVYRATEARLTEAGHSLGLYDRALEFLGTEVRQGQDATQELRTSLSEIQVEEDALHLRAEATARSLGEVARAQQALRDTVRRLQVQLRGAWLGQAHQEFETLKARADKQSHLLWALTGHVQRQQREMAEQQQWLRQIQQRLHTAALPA

[5] = target: T4, PirB ectodomain (22-643), expressed from pcDNA3.1-myc (mouse) (UniProt P97484); assay: co-IP; cells transiently transfected with pcDNA3.1-flag ANGPTL8 constructs and pcDNA3.1-myc PirB ectodomain; lysed after 24 h in 1% Triton X-100, 150 mM NaCl, 20 mM Tris pH 7.5, 1 mM EDTA
T4 sequence: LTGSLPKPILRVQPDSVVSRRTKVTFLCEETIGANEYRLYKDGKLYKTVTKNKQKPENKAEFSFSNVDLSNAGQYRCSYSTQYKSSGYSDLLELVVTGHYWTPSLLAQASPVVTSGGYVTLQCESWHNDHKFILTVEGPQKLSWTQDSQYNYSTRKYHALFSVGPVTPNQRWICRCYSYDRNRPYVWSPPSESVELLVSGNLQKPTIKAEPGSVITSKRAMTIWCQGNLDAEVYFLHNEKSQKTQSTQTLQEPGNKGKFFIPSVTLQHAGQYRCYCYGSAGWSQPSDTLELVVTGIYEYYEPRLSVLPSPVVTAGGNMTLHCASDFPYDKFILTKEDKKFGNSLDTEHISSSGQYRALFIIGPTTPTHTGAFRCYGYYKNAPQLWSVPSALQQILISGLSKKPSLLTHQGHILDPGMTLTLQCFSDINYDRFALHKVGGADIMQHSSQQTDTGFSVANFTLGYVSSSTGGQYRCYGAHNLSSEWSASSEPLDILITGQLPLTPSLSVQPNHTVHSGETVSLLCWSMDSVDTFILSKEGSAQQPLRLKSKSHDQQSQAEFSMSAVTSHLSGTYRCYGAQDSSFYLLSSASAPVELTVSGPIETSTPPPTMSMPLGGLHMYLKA

For “SHP-1 (from UniProt P29351 1-595) (enzyme)”, which binding [1] is on record?
Its binding is “binds”.

B1: recombinant ANGPTL8 protein (Flag-tagged) (ligand, UniProt Q8R1L8 16-198)
chain: VRPAPVAPLGGPEPAQYEELTLLFHGALQLGQALNGVYRATEARLTEAGHSLGLYDRALEFLGTEVRQGQDATQELRTSLSEIQVEEDALHLRAEATARSLGEVARAQQALRDTVRRLQVQLRGAWLGQAHQEFETLKARADKQSHLLWALTGHVQRQQREMAEQQQWLRQIQQRLHTAALPA
B1 was tested. Which binding [2] did it give?
Its binding is “binds”.

What about the binding [3] of the same molecule?
Its binding is “binds”.

B2: Paired immunoglobulin-like receptor B (PirB) on monocyte-derived macrophages (receptor, UniProt P97484 25-841)
chain: SLPKPILRVQPDSVVSRRTKVTFLCEETIGANEYRLYKDGKLYKTVTKNKQKPENKAEFSFSNVDLSNAGQYRCSYSTQYKSSGYSDLLELVVTGHYWTPSLLAQASPVVTSGGYVTLQCESWHNDHKFILTVEGPQKLSWTQDSQYNYSTRKYHALFSVGPVTPNQRWICRCYSYDRNRPYVWSPPSESVELLVSGNLQKPTIKAEPGSVITSKRAMTIWCQGNLDAEVYFLHNEKSQKTQSTQTLQEPGNKGKFFIPSVTLQHAGQYRCYCYGSAGWSQPSDTLELVVTGIYEYYEPRLSVLPSPVVTAGGNMTLHCASDFPYDKFILTKEDKKFGNSLDTEHISSSGQYRALFIIGPTTPTHTGAFRCYGYYKNAPQLWSVPSALQQILISGLSKKPSLLTHQGHILDPGMTLTLQCFSDINYDRFALHKVGGADIMQHSSQQTDTGFSVANFTLGYVSSSTGGQYRCYGAHNLSSEWSASSEPLDILITGQLPLTPSLSVQPNHTVHSGETVSLLCWSMDSVDTFILSKEGSAQQPLRLKSKSHDQQSQAEFSMSAVTSHLSGTYRCYGAQDSSFYLLSSASAPVELTVSGPIETSTPPPTMSMPLGGLHMYLKALIGVSVAFILFLFIFIFILLRRRHRGKFRKDVQKEKDLQLSSGAEEPITRKGELQKRPNPAAATQEESLYASVEDMQTEDGVELNSWTPPEEDPQGETYAQVKPSRLRKAGHVSPSVMSREQLNTEYEQAEEGQGANNQAAESGESQDVTYAQLCSRTLRQGAAASPLSQAGEAPEEPSVYATLAAARPEAVPKDMEQ
How did the binding [4] turn out when B2 was run?
Its binding is “binds”.

B3: full-length ANGPTL8 (16-198), Flag-tagged, expressed from pcDNA3.1-flag (ligand, UniProt Q8R1L8 16-198)
chain: VRPAPVAPLGGPEPAQYEELTLLFHGALQLGQALNGVYRATEARLTEAGHSLGLYDRALEFLGTEVRQGQDATQELRTSLSEIQVEEDALHLRAEATARSLGEVARAQQALRDTVRRLQVQLRGAWLGQAHQEFETLKARADKQSHLLWALTGHVQRQQREMAEQQQWLRQIQQRLHTAALPA
How did the binding [5] turn out when B3 was run?
Its binding is “binds”.

B4: truncated ANGPTL8 A55-198, Flag-tagged (domain or fragment, UniProt Q8R1L8 55-198)
chain: ATEARLTEAGHSLGLYDRALEFLGTEVRQGQDATQELRTSLSEIQVEEDALHLRAEATARSLGEVARAQQALRDTVRRLQVQLRGAWLGQAHQEFETLKARADKQSHLLWALTGHVQRQQREMAEQQQWLRQIQQRLHTAALPA
Which binding [5] does the source give for B4 here?
Its binding is “binds”.

B5: truncated ANGPTL8 A130-198 (CC-like domain), Flag-tagged (domain or fragment, UniProt Q8R1L8 130-198)
chain: VRRLQVQLRGAWLGQAHQEFETLKARADKQSHLLWALTGHVQRQQREMAEQQQWLRQIQQRLHTAALPA
Which binding [5] does the source give for B5 here?
Its binding is “binds”.
